This note sets out measurements from PubChem BioAssay AID493014 (National Center for Advancing Translational Sciences (NCATS), 2011).

As usually defined, the AC50 is the concentration giving half of the maximal activity seen.

The other results are listed elsewhere or left out. Further columns of the screen follow, without active or inactive calls. The list favours compounds with an active or inconclusive main result. Potencies come from curve fits of mixed quality, noted in brackets.

A short description of this experiment: qHTS Assay to Find Inhibitors of Chronic Active B-Cell Receptor Signaling. Conditions: ABC-DLBCL IkBa-CBG/CBR reporter, luminescence ratio (green luciferase fused to IkBa over red control in TMD8 lymphoma cells), 4 h; measured here: CBR red luminescence, cell number. The source says:
NIH Molecular Libraries Probe Production Network [MLPCN] NIH Chemical Genomics Center [NCGC] MLPCN Grant: 1 R03 DA031086-01A1 PI Name: Dr. R. Eric Davis NCGC Assay Overview: Diffuse large B-cell lymphoma (DLBCL) is the most common category of non-Hodgkin lymphoma, with ~20,000 new cases per year in the United States. DLBCL should be regarded as a collection of different neoplasms. Microarray gene expression analysis has defined two principal types of DLBCL, named for their similarity to normal B cell stages or activation states: a germinal center B-cell (GCB) type, and an activated B-cell (ABC) type. […] Following the addition of doxycycline to induce expression of the luciferases, the green luminescence in control cultures rises only slowly because the CBG fusion partner IkappaBalpha is targeted by IKK activity for rapid degradation. In contrast, green luminescence rises rapidly in the presence of proteasome inhibitors or IKK inhibitors. The rise in red luminescence of CBR is not affected by proteasome or IKK inhibitors, and serves as normalization for cell number and nonspecific effects. […]
NCGC Assay Protocol Summary: Cells were seeded in 1536-well plates at 5000 cells/4uL in IMDM medium containing 0.5% FBS, w/o phenol red, 1% penicillin/streptomycin. […] The plates were measured on a ViewLux plate reader for green luminescence (540/20 nm filter) and red luminescence (618/8 nm filter). […]
For orientation: qHTS replaces the single test concentration by a dilution series.
For `CCCCNS(=O)(=O)CCNCc1ccccc1OC`, the AC50 is 10.3 µM [rising, partial curve, poor fit].
